These results are taken from PubChem BioAssay AID2685 (National Center for Advancing Translational Sciences (NCATS), 2010).

The assay is described as follows: qHTS Assay for Lipid Storage Modulators in Drosophila S3 Cells.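 On cell number change: cells counted by Cell Tracker Red CMTPX staining in the red channel.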 As to conditions: BODIPY lipid droplet fluorescence, 18-24 h; for cell number change: measured here: cell count max response, cells fed with added oleic acid. The method in brief: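 Drosophila S3 cells loaded with oleic acid (400 uM, as added) and compounds at several concentrations; lipid droplets imaged by 488-nm laser-scanning cytometry, 500–530 nm intensity and object ratio to cell channel. Percent activity normalized to 20 uM Triacsin C.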

Setting [1] is: measured here: lipid fluorescence (Fed channel) AC50, cells fed with added oleic acid.
[2] abbreviates: measured here: cell number channel AC50, cells fed with added oleic acid.

Some of the results follow. These are further read-outs of the screen, such as a control signal, another cell line or another target. No call is given for them. The list favours compounds with an active or inconclusive main result. Potencies come from curve fits of mixed quality, noted in brackets.

Regarding `COc1ccccc1-c1nc(C#N)c(N2CCCCCC2)o1`, the cell number change came to 5.58%. Moreover, the AC50 under setting [1] was 3.26 µM [rising, partial curve].
`Cc1ccc(S(=O)(=O)/N=C(/c2ccc(F)cc2)N2CCCCC2)cc1`: the cell number change is -11.6%. Besides, the AC50 under setting [1] was 4.11 µM [falling, single point].
Regarding `Cc1cc(C)c(C)c(S(=O)(=O)N2CCC(C(=O)NCC(c3ccccc3)N(C)C)CC2)c1C` (stereo not drawn), the cell number change was -20.6%. The AC50 under setting [1] is 0.00517 µM [rising, full curve, poor fit].
For `CC(OC(=O)c1cccs1)C(=O)Nc1nc(-c2ccccc2)cs1` (stereo not drawn), the cell number change is -12.5%. The AC50 under setting [1] was 20.6 µM [falling, single point].
As for `COc1ccc(NC(=O)C2Cc3ccccc3CN2C(=O)c2ccccc2)cn1` (stereo not drawn), the cell number change amounted to 51.7%. The AC50 under setting [2] was 29.1 µM [rising, single point].
For the compound `O=C(N/N=C/c1ccc(Cl)cc1)C1CC12CCC2` (stereo not drawn), the cell number change is -35.8%. Under setting [2], the AC50 was 16.4 µM [falling, single point]. The AC50 under setting [1] was 18.4 µM [falling, single point].
For `C=CCOc1ccc(/C=C/C(=O)OCC(=O)NC2CCCCCCC2)cc1`, the cell number change amounted to 27.5%. Further, the AC50 under setting [2] is 0.00517 µM [rising, full curve, poor fit]. Further, the AC50 under setting [1] was 29.1 µM [rising, single point].
With `COc1ccc2oc(C(=O)OCC(=O)NCCc3ccc(S(N)(=O)=O)cc3)c(C)c2c1`, the cell number change is -41.3%. Besides, under setting [2], the AC50 was 18.4 µM [falling, partial curve]. Further, the concentration at half-maximal activity (AC50) under setting [1] is 7.31 µM [falling, partial curve, poor fit].
Take `COc1ccc(CN(CC(=O)NCc2ccc(F)cc2)C(=O)c2ccco2)cc1`: the cell number change came out at 24.4%.
On to `CC(C)CC(OC(=O)c1nsc(Cl)c1Cl)C(=O)NC1CCCC1` (stereo not drawn), for which the cell number change turned out to be 14.3%. Besides, the AC50 under setting [2] is 6.51 µM [rising, single point].
Take `COc1ccc(C(C(=O)NC2CCCC2)N(CC2CCCO2)C(=O)Cn2nnc(-c3ccc(C)o3)n2)cc1` (stereo not drawn): the cell number change was -2.32%. For the same compound, under setting [2], the AC50 was 0.092 µM [rising, full curve, poor fit].
As to `O=C(COc1ccccc1Cl)NCCCN1CCOCC1`, the cell number change was -27.1%. Also, the AC50 under setting [1] is 20.6 µM [falling, single point].
Regarding `Cc1c(C(=O)N2CCN(CCc3ccccn3)CC2)oc2ccc(Cl)cc12`, the cell number change came out at 40.9%. Further, the AC50 under setting [2] was 0.092 µM [rising, full curve, poor fit].
As for `Cc1cc(=O)oc2cc(NC(=O)Cc3ccccc3)ccc12`, the cell number change was determined as 5.71%.
In the case of `COc1ccc(-c2csc(NC(=O)CSc3n[nH]c(N)n3)n2)cc1`, the cell number change was found to be 33.6%. Besides, under setting [2], the AC50 is 7.31 µM [rising, single point].
In the case of `COc1ccc(C(C)(C)C)cc1NC(=O)c1cccc(S(=O)(=O)N2CCN(C(C)=O)CC2)c1`, the cell number change amounted to 11.5%. The AC50 under setting [1] was 0.116 µM [rising, full curve, poor fit].
Turning to `COCCCNC(=S)Nc1cccc(S(=O)(=O)NC2=NCCC2)c1`, the AC50 under setting [2] is 0.461 µM [falling, single point].
Consider `CCOc1ccc(CN(C)CC(O)COC(c2ccc(OC)cc2)c2ccc(OC)cc2)cc1` (stereo not drawn), for which the cell number change is 38.2%. In addition, under setting [2], the AC50 is 29.1 µM [rising, single point]. Further, the AC50 under setting [1] was 4.47 µM [falling, full curve, poor fit].
In the case of `CCNc1oc(-c2cccc3ccccc23)nc1C#N`, the cell number change was -22%. The AC50 under setting [1] is 0.82 µM [falling, single point].
Turning to `NC(=S)c1cc2cc(Cl)ccc2oc1=O`, the cell number change was found to be 10.9%. Moreover, the AC50 under setting [1] was 0.651 µM [falling, single point].
For the compound `COc1ccc(NS(=O)(=O)c2csc(C(=O)N3CCCC3)c2)cc1`, the cell number change was found to be 0.895%.
`CC(C)NC(=O)c1cccc(NC(=O)CC2SC(N3CCCCC3)=NC2=O)c1` (stereo not drawn): the cell number change was -19.3%.
With `O=C(c1ccc(F)cc1)C1CCN(C(=S)Nc2ccc(F)cc2)CC1`, the cell number change was -8.51%. Besides, under setting [1], the AC50 was 16.4 µM [falling, single point].
As for `Cc1cccc(C(C)n2nnc3ccccc32)c1O` (stereo not drawn), the cell number change came to 11.8%. For the same compound, the AC50 under setting [2] was 0.291 µM [falling, single point]. Under setting [1], the half-maximal activity concentration (AC50) is 32.6 µM [rising, partial curve, poor fit].
With `O=C(NC(=S)N1CCN(Cc2ccccc2)CC1)c1ccccc1`, the cell number change turned out to be 36.9%. For the same compound, under setting [2], the AC50 is 16.4 µM [rising, single point]. The AC50 under setting [1] is 29.1 µM [rising, single point].
As for `CCOc1ccc(S(=O)(=O)N(C)CC(=O)N2CCCC2)cc1`, the cell number change was -16.6%. In addition, the AC50 under setting [1] is 0.0731 µM [falling, single point].
Turning to `CC(C)CCCNc1nc(N2CCOCC2)nc(N2CCOCC2)n1`, the cell number change was 18.7%. Besides, under setting [1], the AC50 is 5.8 µM [rising, full curve, poor fit].
As to `CC1=C(C(=O)O)N2C(=O)C(NC(=O)c3nn(C)cc3[N+](=O)[O-])C2SC1` (stereo not drawn), the cell number change is -36.4%. The AC50 under setting [2] is 0.146 µM [falling, full curve, poor fit].
For `Cc1ccc(NS(=O)(=O)c2cccs2)c(C)c1`, the cell number change stood at 21.8%.
In the case of `COc1ccc(/C=C/C(=O)NC(=S)NNC(=O)c2ccco2)cc1OC`, the cell number change is -11.9%. The AC50 under setting [1] was 6.51 µM [falling, single point].
As to `CC(COc1cccc2ccccc12)CN1CCN(C)CC1` (stereo not drawn), the cell number change came out at 0.374%.
Turning to `COc1ccc(C[C@H]2CN3C(=NC[C@@H]3Cc3ccc(O)cc3)N2C[C@H](C)NC(=O)c2ccc(C)c(Br)c2)cc1`, the cell number change is -32.6%. In addition, the AC50 under setting [2] is 29.1 µM [falling, single point]. In addition, the AC50 under setting [1] was 3.26 µM [falling, partial curve, poor fit].
Turning to `CCc1ccc(N2CC(C(=O)N3CCCC3)CC2=O)cc1` (stereo not drawn), the cell number change is 9.21%. The AC50 under setting [1] is 5.62 µM [rising, single point].
Regarding `CCCCn1c(N)c(N(CC)C(=O)C(c2ccccc2)c2ccccc2)c(=O)[nH]c1=O`, the AC50 under setting [2] is 0.082 µM [rising, partial curve, poor fit].
As to `COc1ccc(OC)c(S(=O)(=O)N2CCC(C(=O)N3CCCC3)CC2)c1`, the cell number change was -5.26%.
As for `COc1ccc(NC(=O)Cn2c3ccccc3c3nc4n(c(=O)c32)CCS4)cc1OC`, the cell number change was 177%. Besides, the AC50 under setting [2] was 29.1 µM [rising, single point]. Further, the concentration at half-maximal activity (AC50) under setting [1] was 29.1 µM [falling, single point].
For `c1cn2cc(CSC3CCCCC3)nc2s1`, the cell number change is -13.5%. The half-maximal activity concentration (AC50) under setting [1] is 29.1 µM [rising, single point].
`CCc1cc2c(Nc3ccc(O)cc3)nc(C)nc2s1`: the cell number change is -33.5%. Further, the AC50 under setting [2] is 20.6 µM [falling, single point].
For `Cc1cc(C)n2c(SCc3ccc(C#N)cc3)nnc2n1`, the cell number change amounted to 11.6%.
In the case of `Cc1oc2c(c1C(=O)NCc1cccnc1)C(=O)c1ccccc1C2=O`, the cell number change was -16.2%. The AC50 under setting [1] was 5.8 µM [falling, full curve].
Take `O=C(Nc1ccccc1)N(C1=NCCC1)c1ccc(OC(F)F)cc1`: the cell number change came out at 19.5%. Further, the AC50 under setting [1] was 16.4 µM [rising, single point].
As to `Cc1ccc(C)c(C(=O)CSc2n[nH]c(C)n2)c1`, the cell number change was -6.42%. In addition, the AC50 under setting [1] is 29.1 µM [rising, single point].
Turning to `COC(=O)c1ccc(CNC(=O)c2ccc3c(c2)OCCO3)cc1`, the cell number change is -0.806%.
As for `O=C(COC(=O)C12CC3CC(CC(C3)C1)C2)NCc1ccco1`, the cell number change is -44.2%. Moreover, the AC50 under setting [2] was 0.411 µM [falling, full curve]. Further, the half-maximal activity concentration (AC50) under setting [1] was 29.1 µM [falling, single point].
As to `O=c1c2c(nc3c(-c4cccc(Br)c4)c[nH]n13)CCCC2`, under setting [2], the AC50 is 0.82 µM [rising, full curve, poor fit].
Turning to `COc1cccc(OC)c1C(=O)NC(=S)Nc1ccc2c(c1)OCCO2`, the cell number change was -1.91%.
Turning to `COc1ccc(N(C(=O)CNC(=O)c2ccco2)C(C(=O)NCC2CCCO2)c2ccccc2)cc1` (stereo not drawn), the cell number change was 20%.
As to `O=C(COc1cccnc1[N+](=O)[O-])Nc1cccc2ccccc12`, the cell number change was 2.87%. For the same compound, the AC50 under setting [1] was 6.51 µM [rising, single point].
Take `COC(=O)[C@H](Cc1ccccc1)NC(=O)Nc1ccc(S(N)(=O)=O)cc1`: the AC50 by setting is: under setting [2], 0.0058 µM [falling, full curve, poor fit]; under setting [1], 3.66 µM [falling, full curve].
As to `CC1(C)CC(=NO)CC(C)(C)N1`, the cell number change came to 1.27%. Moreover, the AC50 under setting [1] was 0.651 µM [rising, full curve, poor fit].
For the compound `CC1CCN(C(c2ccccc2)c2nnnn2C(C)(C)C)CC1` (stereo not drawn), the AC50 under setting [1] was 18.4 µM [falling, single point].
Regarding `Fc1ccc(Oc2nnnn2-c2ccccc2)cc1`, the cell number change was found to be 154%.
Regarding `Cc1ccc(CC(=O)O/N=C(\N)c2ccccn2)cc1`, the cell number change was 36.8%. In addition, the AC50 under setting [2] was 25.9 µM [rising, single point].
Take `Cc1ccc(S(=O)(=O)NCC(c2ccccc2)N2CCN(c3ccc(F)cc3)CC2)cc1` (stereo not drawn): the cell number change is -4.59%. The AC50 under setting [1] was 3.66 µM [falling, full curve, poor fit].
As for `O=C(c1cccc(S(=O)(=O)N2CCOCC2)c1)N(Cc1ccco1)Cc1cccs1`, the cell number change was -5.78%. Under setting [1], the AC50 is 1.84 µM [rising, partial curve, poor fit].
`Cc1nc2ccccn2c1C(=O)NNS(=O)(=O)c1ccc(Cl)cc1`: the cell number change was -30.9%. Under setting [2], the AC50 was 29.1 µM [falling, single point]. The AC50 under setting [1] is 2.06 µM [rising, partial curve, poor fit].
For the compound `COc1ccc(C(C)=O)cc1CSc1nc2cc(Cl)ccc2o1`, the cell number change came to 62.8%. Under setting [2], the AC50 is 2.31 µM [rising, full curve].
For the compound `O=C(Nc1nc2ccccc2[nH]1)c1cccc(Cl)c1`, the cell number change was -6.35%.
As for `CC1=NN(c2ccc(C(=O)OC(C)C)cc2)C(=O)/C1=C\C=C\c1ccco1`, the cell number change was -68.1%. Besides, under setting [2], the AC50 is 23.1 µM [falling, partial curve]. Further, the AC50 under setting [1] was 7.31 µM [falling, partial curve].
Regarding `Cn1nnnc1Sc1ncnc2scc(-c3ccccc3C(F)(F)F)c12`, the cell number change was -19.4%. Moreover, the AC50 under setting [1] is 6.51 µM [rising, partial curve, poor fit].
With `Cc1ccc(Sc2cc(C(=O)NCCN(C)C)c3ccccc3n2)cc1`, the cell number change stood at 15.6%. Besides, the AC50 under setting [1] is 10.3 µM [rising, partial curve].
Regarding `Cc1ccc(NC(=O)Cn2nc(C)c(S(=O)(=O)N(C)C)c2C)cc1`, the cell number change came out at 21.5%. The AC50 under setting [2] was 6.51 µM [rising, partial curve, poor fit].
